The other results are listed elsewhere or left out. Further columns of the screen follow, without active or inactive calls. The list favours compounds with an active or inconclusive main result. Potencies come from curve fits of mixed quality, noted in brackets.
Assay: qHTS Assay for Lipid Storage Modulators in Drosophila S3 Cells;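 for cell number change: cells counted by Cell Tracker Red CMTPX staining in the red channel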
Details: BODIPY lipid droplet fluorescence, 18-24 h; for cell number change: measured here: cell count max response, cells fed with added oleic acid
In short: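 Laser-scanning cytometry quantifies lipid droplet accumulation (500–530 nm total intensity; droplet/cell object ratio) in oleic acid-fed (400 uM added) Drosophila S3 cells treated with a concentration series. 20 uM Triacsin C defined 100% inhibition.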

[1] = measured here: cell number channel AC50, cells fed with added oleic acid
[2] = measured here: lipid fluorescence (Fed channel) AC50, cells fed with added oleic acid

Compound | cell number change [%] | AC50 [1] | AC50 [2]
CCc1ccc(N(C(=O)CNC(=O)c2ccco2)C(C(=O)NC2CCCC2)c2ccncc2)cc1 (stereo not drawn) | -2.5 |  | 
COc1ccc(C2CC(c3ccc([N+](=O)[O-])cc3)=NN2C(C)=O)cc1 (stereo not drawn) | 0.971 |  | 
CCN(C(=O)c1cccc(Br)c1)c1ccccc1 | -42.5 | 10.3 µM [falling, partial curve] | 9.2 µM [falling, partial curve]
O=C(CSc1nnc(NC(=O)CN2CCOCC2)s1)Nc1ccccc1 | -15.3 | 6.51 µM [falling, single point] | 
COC(=O)c1ccccc1NC(=O)CN(c1c(C)cccc1C)S(C)(=O)=O | 9.8 |  | 29.1 µM [falling, single point]
Cc1cc(C)n2nc(C(=O)OCC(=O)c3cc(C)n(C)c3C)nc2n1 | 92 | 23.1 µM [rising, single point] | 2.59 µM [rising, single point]
CCOc1cc(CNCCSc2nnnn2C)cc(Br)c1OCc1ccccc1 | -32.3 |  | 2.06 µM [rising, partial curve]
CC(C)Cn1c(=O)c2ccccc2n2c(CCC(=O)NCC3CCCO3)nnc12 (stereo not drawn) | -8.06 |  | 2.06 µM [falling, partial curve]
COCCCn1c(SCC(=O)Nc2ccc(C(=O)OC)cc2)nc2ccccc2c1=O | -55.7 | 29.1 µM [falling, single point] | 29.1 µM [falling, partial curve]
COC(=O)c1ccc(Cn2cnc3ccccc3c2=O)cc1 | 31.3 | 0.461 µM [rising, full curve, poor fit] | 0.82 µM [rising, partial curve]
Cc1cc(C)nc(/N=C(\N)Nc2ccc(CC(=O)OC(C)C)cc2)n1 | -11.1 |  | 20.6 µM [falling, partial curve]
O=C(Cn1cc([N+](=O)[O-])cn1)N1CCN(Cc2ccc3c(c2)OCO3)CC1 | -31.4 | 0.231 µM [falling, full curve, poor fit] | 
Cc1cc(C)nc(-n2nc(C)c(C3(O)C(=O)Nc4ccc(F)cc43)c2N)n1 (stereo not drawn) | -4.19 |  | 0.731 µM [falling, single point]
Cc1ccc(NC(=O)c2cc(S(=O)(=O)NCCc3ccccc3)ccc2F)cc1Cl | -22.4 |  | 29.1 µM [falling, single point]
CCOC(=O)Cc1csc(NC(=O)Nc2cccc(Cl)c2)n1 | 37.3 | 11.6 µM [rising, partial curve, poor fit] | 16.4 µM [rising, partial curve]
O=C(NNC(=S)NCc1ccccc1)c1cccc([N+](=O)[O-])c1 | -39.4 | 16.4 µM [falling, partial curve] | 7.31 µM [falling, single point]
Cc1cc(C(=O)NCc2ccccc2Br)no1 | 1.12 |  | 
CCOC(=O)C1CCN(C(=O)COC(=O)CSc2ccc(C(N)=O)cc2[N+](=O)[O-])CC1 | -11 |  | 0.82 µM [rising, single point]
COc1ccc2c3n(nc2c1)CCN=C3c1ccc(C)cc1 | 5.55 |  | 29.1 µM [rising, single point]

Compound | cell number change [%] | AC50 [1] | AC50 [2]
N/C(=N\OS(=O)(=O)c1ccccc1)c1cccnc1 | 96.8 | 18.4 µM [rising, single point] | 4.11 µM [rising, full curve]
CCn1nnnc1SCC(=O)N1CCCCC1 | -23.7 |  | 
CCOC(=O)C1=C(C)Nc2ccccc2N=C1NC(=O)c1ccc(Cl)c(S(=O)(=O)N2CCCC2)c1 | -20.2 | 0.082 µM [falling, partial curve, poor fit] | 0.0731 µM [falling, partial curve, poor fit]
O=C(CSc1nnc(-c2ccncc2)o1)N1CCc2ccccc2C1 |  | 6.51 µM [rising, single point] | 
O=S(=O)(c1ccccc1)N1CCn2c(nc3ccccc32)C1 | 6.15 |  | 
COCc1cc(=O)n2[nH]c(SC)nc2n1 | -37.1 |  | 10.3 µM [falling, partial curve]
CCOC(=O)Cn1c(=O)oc2cc(S(=O)(=O)NC3CCCc4ccccc43)ccc21 (stereo not drawn) | 7.76 |  | 14.6 µM [rising, single point]
Cn1nccc1C(=O)N1CCCC(N2CCN(c3cccc(C(F)(F)F)c3)CC2)C1 (stereo not drawn) | 20.2 | 0.291 µM [rising, full curve, poor fit] | 29.1 µM [rising, single point]
S=C(c1ccc(-c2ccc(Cl)cc2Cl)o1)N1CCCCC1 | -106 | 29.1 µM [falling, single point] | 29.1 µM [falling, single point]
CSCCC(NC(=O)c1ccccc1Cl)C(=O)NNC(=O)c1ccccc1O (stereo not drawn) | -25 | 3.66 µM [falling, single point] | 
Clc1cccc(Cl)c1Cn1cnc(=NCc2ccco2)c2[nH]cnc21 | -16.6 |  | 
CCN1C(=O)/C(=C/N(C(C)=O)c2ccccc2)N(c2ccccc2)C1=S | -0.161 |  | 1.46 µM [falling, partial curve, poor fit]
COc1ccc(NC(=O)C2CCCNC2)cc1OCC(C)C (stereo not drawn) | 10.6 |  | 5.8 µM [falling, single point]
O=C(CSc1nnc(SCc2ccc(Cl)cc2)s1)N/N=C/c1c(Cl)cccc1Cl | 4.66 |  | 1.16 µM [rising, single point]
COc1cc(/C=N/NC(=O)CC2C(=O)NN=C2C)ccc1O (stereo not drawn) | 27 |  | 29.1 µM [rising, single point]
CC(C)OC(=O)c1ccc(COc2ccc3ccc(=O)oc3c2)o1 | 26.6 |  | 18.4 µM [rising, partial curve]
O=S(=O)(Nc1ccc(Cl)nn1)c1ccccc1 |  | 0.00517 µM [falling, full curve, poor fit] | 0.82 µM [falling, partial curve]
Cn1c(=O)c2c(ncn2CC(=O)N2CCN(C(=O)c3ccco3)CC2)n(C)c1=O | 118 | 4.61 µM [falling, single point] | 6.51 µM [falling, single point]

Three compounds already listed, sorted by molecular weight, high to low:
Compound | cell number change [%] | AC50 [1] | AC50 [2]
O=C(CSc1nnc(SCc2ccc(Cl)cc2)s1)N/N=C/c1c(Cl)cccc1Cl | 4.66 |  | 1.16 µM [rising, single point]
O=S(=O)(c1ccccc1)N1CCn2c(nc3ccccc32)C1 | 6.15 |  | 
COc1cc(/C=N/NC(=O)CC2C(=O)NN=C2C)ccc1O (stereo not drawn) | 27 |  | 29.1 µM [rising, single point]
